Our source for the binding signal values is PMC7819943, “Rice protein-binding microarrays: a tool to detect cis-acting elements near promoter regions in rice”.

The other results are listed elsewhere or left out.

The target of this assay is T1, OsSMF1 (Oryza sativa, UniProt Q6ZLB0 1-436).
T1 sequence: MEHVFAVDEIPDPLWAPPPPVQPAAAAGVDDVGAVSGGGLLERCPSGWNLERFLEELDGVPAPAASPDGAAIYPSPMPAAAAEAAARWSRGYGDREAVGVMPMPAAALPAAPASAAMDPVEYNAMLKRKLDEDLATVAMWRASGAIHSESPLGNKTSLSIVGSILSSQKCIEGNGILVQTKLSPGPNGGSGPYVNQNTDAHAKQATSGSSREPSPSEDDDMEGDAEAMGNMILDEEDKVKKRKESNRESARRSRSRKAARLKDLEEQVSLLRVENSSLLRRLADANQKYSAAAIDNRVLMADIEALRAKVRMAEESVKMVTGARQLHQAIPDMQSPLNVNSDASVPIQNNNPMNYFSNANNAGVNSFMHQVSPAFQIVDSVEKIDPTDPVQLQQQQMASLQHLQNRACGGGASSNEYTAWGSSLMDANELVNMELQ
The assay is described as follows: protein-binding microarray (RPBM); PBS, 2% BSA, 51.3 ng/ul salmon testes DNA, 50 uM zinc acetate, 200 nM TF, 25 C, 1 h; high values mean tight binding. Particulars: protein: recombinant; tags: N-terminal polyhistidine and DsRed monomer fusion (pET32a); chain copies: 2; label: CyDye5-dUTP incorporated in the synthesized complementary strand; 3' TTTTT single-stranded linker to array surface; dsDNA, one strand shown. In outline: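 An Axon 4000B scanner gave the binding signal as per-feature fluorescence intensity in arbitrary units. This followed washing of a custom Agilent array that had been incubated for 1 h at 25 °C with 200 nM protein in PBS, 2% BSA, salmon testes DNA and 50 µM zinc acetate. The proteins were transcription factors fused at the N-terminus to polyhistidine and DsRed, expressed in E. coli BL21-CodonPlus and purified on Ni–NTA.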
Regarding “TGTCTTTGAATCCACGTTGCTCGACATAGTGTTCTTTTGTCGGAGTCACCTAGTGCAG”, the binding signal was 5460 fluorescence intensity (a.u.).

As to “GGTGTGCTATCAATGATGGTGGGGCAACTAGGATGTGATGCGGAGTCACCTAGTGCAG”, the binding signal is 3410 fluorescence intensity (a.u.).

Regarding “GCGGGAGAACAGTGATGTGTAGGGTTTCAGGGGAATGGAGCGGAGTCACCTAGTGCAG”, the binding signal is 7120 fluorescence intensity (a.u.).

Consider “CGTCTCATGAGTCATGATCCAACGTCATGCATGTATGTAACGGAGTCACCTAGTGCAG”, for which the binding signal was 11400 fluorescence intensity (a.u.).

With “TCGCGATGACGAGCTCGGCCACCACCTCAACATCGTCCATCGGAGTCACCTAGTGCAG”, the binding signal was 4500 fluorescence intensity (a.u.).

In the case of “ATGCTCCAGACGGTCTACGTGTTCCCTCCCAACAATAAAACGGAGTCACCTAGTGCAG”, the binding signal is 3260 fluorescence intensity (a.u.).

On to “CCGGAGGAAGATCGGATTATACACGTTCTCTTGGATTCGACGGAGTCACCTAGTGCAG”, for which the binding signal is 4570 fluorescence intensity (a.u.).

Turning to “TAGGGTTCTGGTTCTCTCCCCTACAAATACCCACGTACTCCGGAGTCACCTAGTGCAG”, the binding signal was 3240 fluorescence intensity (a.u.).

Regarding “CATGGATAGGATAATCGTAACAATTATCTAGACAGTGATGCGGAGTCACCTAGTGCAG”, the binding signal is 3140 fluorescence intensity (a.u.).

On to “GTACATACGCTGACACTGTTGGTGCGCGTGTGCGTCTCCCCGGAGTCACCTAGTGCAG”, for which the binding signal is 3810 fluorescence intensity (a.u.).

“CCACTCGCTCTGCCACCGCATGCTCGATAGCCGCTTCCCCCGGAGTCACCTAGTGCAG”: the binding signal is 4840 fluorescence intensity (a.u.).

As for “AGCTCCACCCCTTCTGAGCTGGAGTTCAGTCATACAGGAGCGGAGTCACCTAGTGCAG”, the binding signal is 3800 fluorescence intensity (a.u.).

In the case of “AACAACAGGAGTGGTGCATGACAAATACTCCTACCTAGCACGGAGTCACCTAGTGCAG”, the binding signal was 36400 fluorescence intensity (a.u.).

With “ACACTACTGGCACAAGGGCCGCGTCAGGGACTTGGTCATGCGGAGTCACCTAGTGCAG”, the binding signal is 3970 fluorescence intensity (a.u.).

For the sequence “ACCTGATGAAGGGATCGATCGATAGTGAGGTGTGCAATGGCGGAGTCACCTAGTGCAG”, the binding signal was 3840 fluorescence intensity (a.u.).

“GTGCATGCGTGACGATGTCATGCTTGTGTGCCATCGGTGGCGGAGTCACCTAGTGCAG”: the binding signal was 4500 fluorescence intensity (a.u.).

“AGTGCCACCGTATGACGCATGATAACTGGTGTGGAGGCTGCGGAGTCACCTAGTGCAG”: the binding signal was 4440 fluorescence intensity (a.u.).

“CAAAATCAACCCGACTTCCAGGCTCCCAGCGCCACTGCGCCGGAGTCACCTAGTGCAG”: the binding signal is 3440 fluorescence intensity (a.u.).

For “GTATATAATATGGTGTTGAGTGTCATTGGTGTATGCTTGACGGAGTCACCTAGTGCAG”, the binding signal is 3560 fluorescence intensity (a.u.).

On to “AAATCGACGAAGTCATTATAGTCGTAGATGTCTCTCTATTCGGAGTCACCTAGTGCAG”, for which the binding signal is 32100 fluorescence intensity (a.u.).

For the sequence “TTGTTTGCAGATGCGCGCTCCGCTTAGAAAATAGCAGCAGCGGAGTCACCTAGTGCAG”, the binding signal was 4380 fluorescence intensity (a.u.).

On to “GTGCATTAGTCCCTTAATCGTTTGTCATCAATAAACCAAACGGAGTCACCTAGTGCAG”, for which the binding signal was 3390 fluorescence intensity (a.u.).

Consider “TAATATTTCACGAAGTTATTCAAACGTTCGATGTGGCAGGCGGAGTCACCTAGTGCAG”, for which the binding signal was 3720 fluorescence intensity (a.u.).

On to “ATTTATGATTAACATATATTATTATGTACAAGTAGGTGATCGGAGTCACCTAGTGCAG”, for which the binding signal is 3570 fluorescence intensity (a.u.).

As to “TACTAGAGAAACTTTATTGCACAAAAGGAAATTTATCCATCGGAGTCACCTAGTGCAG”, the binding signal was 3410 fluorescence intensity (a.u.).

For the sequence “CCACCATGGATCCGACGTGGCACAACCACATTGGTCCCTCCGGAGTCACCTAGTGCAG”, the binding signal is 17700 fluorescence intensity (a.u.).

As to “CATTGCTTTGTTTGATCTTGTGTGCCAATAATTGATGAAACGGAGTCACCTAGTGCAG”, the binding signal was 55900 fluorescence intensity (a.u.).

With “TAAAGGTCAAGAAATAGCAGTGAAGAGGCTCGCGAAGACTCGGAGTCACCTAGTGCAG”, the binding signal is 35300 fluorescence intensity (a.u.).

On to “GATATTACGATAAGAACATGGCGTAGTACGAGCTAGTATCCGGAGTCACCTAGTGCAG”, for which the binding signal is 37100 fluorescence intensity (a.u.).

Regarding “ACCATGCCACCATATGTCTGATTAGCACACTTCTTTTAAACGGAGTCACCTAGTGCAG”, the binding signal was 15700 fluorescence intensity (a.u.).

On to “AACACTCACTGACACGTGGACCCCACCCTCCCCTGGCCCCCGGAGTCACCTAGTGCAG”, for which the binding signal is 25800 fluorescence intensity (a.u.).

In the case of “AGCAGATAAGGTTTTGGAACGGCTGCTACACGTACGAACCCGGAGTCACCTAGTGCAG”, the binding signal was 3640 fluorescence intensity (a.u.).

For the sequence “CAAAATGGAGAGCTAGCACACACGATAGGGACGGCTCGACCGGAGTCACCTAGTGCAG”, the binding signal was 32600 fluorescence intensity (a.u.).

Take “CAACTCCAGGATACCCTTGATGACTCGAGCTTCTTCAGCTCGGAGTCACCTAGTGCAG”: the binding signal was 5160 fluorescence intensity (a.u.).

In the case of “GGGCTGGGGAAAATGATCGACTACTTTTAACCATTTCAGTCGGAGTCACCTAGTGCAG”, the binding signal was 3420 fluorescence intensity (a.u.).

“GATCTGACGCATGAGTCGGCATGGAGGGCGTCCTGGTGAGCGGAGTCACCTAGTGCAG”: the binding signal is 5090 fluorescence intensity (a.u.).

For “GACCGAGTCGTGCGCTGGTTGCATCCATCCTTTTCGCACACGGAGTCACCTAGTGCAG”, the binding signal was 22200 fluorescence intensity (a.u.).

As for “AAAATTCCTTCTAAATCAGCGGCTAGGTCTGTTTGAAGTTCGGAGTCACCTAGTGCAG”, the binding signal is 3250 fluorescence intensity (a.u.).

Consider “CGCTCTCCAAGGTTGGGTGGCTATTTATGCGTGTATGGATCGGAGTCACCTAGTGCAG”, for which the binding signal was 3260 fluorescence intensity (a.u.).

In the case of “TCGCGCCACCGCGTCCGCCTCCCCTCGCGCCGCCGTGTCCCGGAGTCACCTAGTGCAG”, the binding signal is 3760 fluorescence intensity (a.u.).

With “GGATTAATTAGTCTCAAAAGATTCGTCTCGCGGTTTCCAGCGGAGTCACCTAGTGCAG”, the binding signal is 29400 fluorescence intensity (a.u.).

Consider “AAAACTTTACCATGTATCTAAACACCAACATGTAATATTGCGGAGTCACCTAGTGCAG”, for which the binding signal is 34200 fluorescence intensity (a.u.).
